From patent publication US20200369776A1
No constants are given. Whether binding was seen depends on the method and setting.

Assays:
[1] = target: CD120a; test: condition: 100 nM (Example 5; not printed on the sheet); flow cytometry, transfected HEK293F cells, APC: Ag-Ab Binding against FITC: Antigen display
[2] = target: CD95; test: as above

Row | binding [1] | binding [2] | Binder
1 | no binding | no binding | AG10059 (antibody, human IgG4 S228P, kappa, V domains shown) VH: EVQLVESGGGLVQPGGSLRLSCAASGYSITSGHYWAWIRQAPGKGLEWVSSISGYGSTTYYADSVKGRFTISRDNSKNTLYLQLNSLRAEDTAVYYCARGGSDAVLGDWFAYWGQGTLVTVSS VL: DIQLTQSPSSLSASVGDRVTITCRASQGIGSFLAWYQQKPGKAPKLLIYDASNLETGVPSRFSGSGSGTDFTLTISSLQPEDFATYYCQQGYYLWTFGQGTKVEIKR
2 | no binding | no binding | AG10058 (antibody, human IgG4 S228P, kappa, V domains shown) VH: EVQLVESGGGLVQPGGSLRLSCAASGFSLSTSGVGVGWIRQAPGKGLEWLALIDWDDDKYYSPSLKSRLTISRDNSKNTLYLQLNSLRAEDTAVYYCARGGSDTVLGDWFAYWGQGTLVTVSS VL: DIQLTQSPSSLSASVGDRVTITCRASQSVSPYLAWYQQKPGKAPKLLIYDASSLESGVPSRFSGSGSGTDFTLTISSLQPEDFATYYCQQGYSLWTFGQGTKVEIKR
